Experimental data: PubChem BioAssay AID504774 (Drosophila RNAi Screening Center, 2011)
Test: 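Genes required for cells to withstand methyl methanesulphonate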 (primary screen). Cells: Drosophila Kc167 cells. Reagent: long dsRNA against Drosophila genes, about 0.25 µg dsRNA per well. Timing: about 6 days: 3 days knock-down, then 3 days with or without MMS. Treatment: methyl methanesulphonate 0.004% (w/v) for 3 days after knock-down. Detection: 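ATP-dependent luminescence as a measure of live cells in MMS-exposed wells, quantile normalised within each plate, with replicate values also given as a mean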. Scale: mean viability with MMS and viability with MMS: higher = more surviving cells after MMS.
In all, the deposit lists about 23,000 reagents; below is a random part of those with a known target gene and a result. 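Values are quantile-normalised luminescence on an arbitrary scale; higher means more cells surviving MMS.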 Names joined by + are all predicted targets of the reagent. Not all columns of the deposit are shown.

CG2750 [DRSC19867]: mean viability with MMS = 3.73e6; viability with MMS, replicate 1 = 4.08e6
snRNA:U1:95Cc + snRNA:U1:95Cb [DRSC13641]: mean viability with MMS = 3.60e6; viability with MMS, replicate 1 = 4.08e6
Vps2 (Vacuolar protein sorting 2) [DRSC14886]: mean viability with MMS = 3.36e6; viability with MMS, replicate 1 = 3.77e6
CG42367 [DRSC21388]: mean viability with MMS = 3.60e6; viability with MMS, replicate 1 = 4.13e6
frtz (fritz) [DRSC00512]: mean viability with MMS = 3.41e6; viability with MMS, replicate 1 = 3.87e6
Or67d (Odorant receptor 67d) [DRSC10158]: mean viability with MMS = 3.37e6; viability with MMS, replicate 1 = 3.82e6
Hil (Hillarin) [DRSC05989]: mean viability with MMS = 3.62e6; viability with MMS, replicate 1 = 4.13e6
Hil (Hillarin) [DRSC06395]: mean viability with MMS = 3.49e6; viability with MMS, replicate 1 = 3.93e6
CG15023 [DRSC08477]: mean viability with MMS = 3.70e6; viability with MMS, replicate 1 = 4.34e6
CG31524 [DRSC22014]: mean viability with MMS = 3.69e6; viability with MMS, replicate 1 = 4.17e6
bdg (bedraggled) [DRSC07136]: mean viability with MMS = 3.71e6; viability with MMS, replicate 1 = 4.22e6
CR30409 (pseudo) [DRSC22058]: mean viability with MMS = 3.49e6; viability with MMS, replicate 1 = 4.00e6
mus302 (mutagen-sensitive 302) [DRSC09905]: mean viability with MMS = 3.51e6; viability with MMS, replicate 1 = 4.01e6
CG9541 [DRSC03257]: mean viability with MMS = 3.63e6; viability with MMS, replicate 1 = 4.07e6
alpha-Est4 (alpha-Esterase-4) [DRSC12616]: mean viability with MMS = 3.57e6; viability with MMS, replicate 1 = 4.14e6
bigmax [DRSC15481]: mean viability with MMS = 3.48e6; viability with MMS, replicate 1 = 3.88e6
beat-IIa (beaten path IIa) [DRSC14813]: mean viability with MMS = 3.76e6; viability with MMS, replicate 1 = 4.05e6
beat-IIa (beaten path IIa) [DRSC14814]: mean viability with MMS = 3.56e6; viability with MMS, replicate 1 = 3.96e6
mus81 [DRSC18180]: mean viability with MMS = 3.65e6; viability with MMS, replicate 1 = 4.10e6
mus81 [DRSC18644]: mean viability with MMS = 3.67e6; viability with MMS, replicate 1 = 4.10e6
eIF4E4 (eukaryotic translation initiation factor 4E4) [DRSC09701]: mean viability with MMS = 3.36e6; viability with MMS, replicate 1 = 3.81e6
Orc2 (Origin recognition complex subunit 2) [DRSC16776]: mean viability with MMS = 3.61e6; viability with MMS, replicate 1 = 4.16e6
MCTS1 (Malignant T cell amplified sequence 1) [DRSC18393]: mean viability with MMS = 3.68e6; viability with MMS, replicate 1 = 4.05e6
Socs44A (Suppressor of Cytokine Signaling at 44A) [DRSC06828]: mean viability with MMS = 3.57e6; viability with MMS, replicate 1 = 4.07e6
CG14312 [DRSC14791]: mean viability with MMS = 3.43e6; viability with MMS, replicate 1 = 3.85e6
Wdfy2 (WD repeat and FYVE domain containing 2) [DRSC02822]: mean viability with MMS = 3.71e6; viability with MMS, replicate 1 = 4.43e6
Patj [DRSC08712]: mean viability with MMS = 3.42e6; viability with MMS, replicate 1 = 3.85e6
Ptp36E (Protein tyrosine phosphatase 36E) [DRSC03021]: mean viability with MMS = 3.40e6; viability with MMS, replicate 1 = 3.87e6
toc (toucan) [DRSC00169]: mean viability with MMS = 3.56e6; viability with MMS, replicate 1 = 4.00e6
toc (toucan) [DRSC00171]: mean viability with MMS = 3.40e6; viability with MMS, replicate 1 = 3.83e6
toc (toucan) [DRSC00842]: mean viability with MMS = 3.52e6; viability with MMS, replicate 1 = 3.99e6
GC1 [DRSC15322]: mean viability with MMS = 3.47e6; viability with MMS, replicate 1 = 3.98e6
CG2812 [DRSC04319]: mean viability with MMS = 3.59e6; viability with MMS, replicate 1 = 4.09e6
dpr12 (defective proboscis extension response 12) [DRSC04814]: mean viability with MMS = 3.52e6; viability with MMS, replicate 1 = 4.02e6
dpr12 (defective proboscis extension response 12) [DRSC04863]: mean viability with MMS = 3.53e6; viability with MMS, replicate 1 = 4.07e6
dpr12 (defective proboscis extension response 12) [DRSC04892]: mean viability with MMS = 3.54e6; viability with MMS, replicate 1 = 4.02e6

A few values from the entries so far.
Under “mean viability with MMS”, toc (toucan) [DRSC00171] shows 3.40e6
Entry of CG14312 [DRSC14791] under “viability with MMS, replicate 1”: 3.85e6
Under “viability with MMS, replicate 1”, mus302 (mutagen-sensitive 302) [DRSC09905] has 4.01e6
